# Library screen at single concentrations

Protein sequences, listed by entry. Tags and fused reporters are not part of them. Residues count along the entry.
UniProt P9WFT3, whole entry: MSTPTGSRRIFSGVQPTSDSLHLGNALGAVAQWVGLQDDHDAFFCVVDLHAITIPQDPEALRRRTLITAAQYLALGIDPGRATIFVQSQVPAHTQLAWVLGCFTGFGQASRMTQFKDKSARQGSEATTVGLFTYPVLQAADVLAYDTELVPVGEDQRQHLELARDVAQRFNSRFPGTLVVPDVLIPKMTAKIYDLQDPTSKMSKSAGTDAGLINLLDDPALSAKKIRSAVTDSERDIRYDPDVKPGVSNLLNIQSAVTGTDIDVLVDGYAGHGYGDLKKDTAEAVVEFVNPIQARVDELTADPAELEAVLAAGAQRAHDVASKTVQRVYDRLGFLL
UniProt P9WPC5, whole entry: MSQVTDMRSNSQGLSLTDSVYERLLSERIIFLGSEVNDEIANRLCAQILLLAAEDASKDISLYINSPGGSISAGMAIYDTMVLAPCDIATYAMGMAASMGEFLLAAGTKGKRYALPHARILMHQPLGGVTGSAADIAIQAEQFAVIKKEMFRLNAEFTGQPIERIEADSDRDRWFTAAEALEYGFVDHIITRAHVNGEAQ
UniProt P9WPC3, whole entry partner: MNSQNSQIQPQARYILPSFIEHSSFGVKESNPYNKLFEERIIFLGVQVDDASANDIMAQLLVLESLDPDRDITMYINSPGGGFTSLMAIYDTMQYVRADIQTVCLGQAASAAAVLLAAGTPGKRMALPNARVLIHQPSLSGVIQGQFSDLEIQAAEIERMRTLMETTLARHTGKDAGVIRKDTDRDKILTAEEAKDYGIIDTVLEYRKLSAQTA
UniProt I6X8D2, whole entry: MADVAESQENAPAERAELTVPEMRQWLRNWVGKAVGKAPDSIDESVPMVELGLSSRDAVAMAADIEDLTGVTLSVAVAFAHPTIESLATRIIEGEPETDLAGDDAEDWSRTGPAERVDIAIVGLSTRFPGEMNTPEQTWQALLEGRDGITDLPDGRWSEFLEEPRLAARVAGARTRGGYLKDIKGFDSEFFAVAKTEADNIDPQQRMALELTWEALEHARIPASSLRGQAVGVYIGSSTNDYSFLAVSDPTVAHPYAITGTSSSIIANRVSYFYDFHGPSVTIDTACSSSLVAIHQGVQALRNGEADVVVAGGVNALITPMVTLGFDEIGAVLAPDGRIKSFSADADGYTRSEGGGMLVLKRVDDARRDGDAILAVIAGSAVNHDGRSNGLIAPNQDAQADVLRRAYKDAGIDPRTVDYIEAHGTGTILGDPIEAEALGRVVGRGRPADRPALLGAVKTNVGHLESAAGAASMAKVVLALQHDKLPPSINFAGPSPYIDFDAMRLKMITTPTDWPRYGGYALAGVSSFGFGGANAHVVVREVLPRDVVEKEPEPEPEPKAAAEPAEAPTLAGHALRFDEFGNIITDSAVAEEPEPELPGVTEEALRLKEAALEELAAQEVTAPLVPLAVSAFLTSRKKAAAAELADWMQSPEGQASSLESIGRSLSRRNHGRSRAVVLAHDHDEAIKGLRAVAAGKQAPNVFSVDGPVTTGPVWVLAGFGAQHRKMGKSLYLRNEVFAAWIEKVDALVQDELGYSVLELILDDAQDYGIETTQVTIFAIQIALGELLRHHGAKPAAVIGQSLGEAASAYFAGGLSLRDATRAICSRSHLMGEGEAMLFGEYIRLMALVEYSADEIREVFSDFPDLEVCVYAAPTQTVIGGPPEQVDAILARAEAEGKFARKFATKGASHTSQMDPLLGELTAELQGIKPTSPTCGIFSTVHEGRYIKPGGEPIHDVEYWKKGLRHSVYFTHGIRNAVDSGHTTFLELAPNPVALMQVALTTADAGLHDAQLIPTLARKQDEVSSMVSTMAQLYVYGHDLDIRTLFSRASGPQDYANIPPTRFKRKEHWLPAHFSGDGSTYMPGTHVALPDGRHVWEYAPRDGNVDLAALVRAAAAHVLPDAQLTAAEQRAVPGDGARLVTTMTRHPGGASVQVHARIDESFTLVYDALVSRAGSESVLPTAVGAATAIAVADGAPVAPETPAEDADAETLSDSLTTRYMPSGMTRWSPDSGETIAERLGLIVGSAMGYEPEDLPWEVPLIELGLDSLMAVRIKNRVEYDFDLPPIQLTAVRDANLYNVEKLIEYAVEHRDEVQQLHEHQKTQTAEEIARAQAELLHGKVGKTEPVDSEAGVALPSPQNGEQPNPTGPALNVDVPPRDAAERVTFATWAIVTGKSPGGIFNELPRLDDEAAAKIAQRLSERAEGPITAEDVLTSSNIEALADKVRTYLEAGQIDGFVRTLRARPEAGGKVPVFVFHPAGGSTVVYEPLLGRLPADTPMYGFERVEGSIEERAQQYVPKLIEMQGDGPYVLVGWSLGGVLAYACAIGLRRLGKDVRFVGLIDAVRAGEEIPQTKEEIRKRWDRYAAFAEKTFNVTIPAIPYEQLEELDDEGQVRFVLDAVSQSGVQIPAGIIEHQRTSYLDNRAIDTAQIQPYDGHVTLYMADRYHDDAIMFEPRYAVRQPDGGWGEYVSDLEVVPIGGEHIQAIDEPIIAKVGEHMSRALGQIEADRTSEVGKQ
UniProt Q8IDJ8, 1-583: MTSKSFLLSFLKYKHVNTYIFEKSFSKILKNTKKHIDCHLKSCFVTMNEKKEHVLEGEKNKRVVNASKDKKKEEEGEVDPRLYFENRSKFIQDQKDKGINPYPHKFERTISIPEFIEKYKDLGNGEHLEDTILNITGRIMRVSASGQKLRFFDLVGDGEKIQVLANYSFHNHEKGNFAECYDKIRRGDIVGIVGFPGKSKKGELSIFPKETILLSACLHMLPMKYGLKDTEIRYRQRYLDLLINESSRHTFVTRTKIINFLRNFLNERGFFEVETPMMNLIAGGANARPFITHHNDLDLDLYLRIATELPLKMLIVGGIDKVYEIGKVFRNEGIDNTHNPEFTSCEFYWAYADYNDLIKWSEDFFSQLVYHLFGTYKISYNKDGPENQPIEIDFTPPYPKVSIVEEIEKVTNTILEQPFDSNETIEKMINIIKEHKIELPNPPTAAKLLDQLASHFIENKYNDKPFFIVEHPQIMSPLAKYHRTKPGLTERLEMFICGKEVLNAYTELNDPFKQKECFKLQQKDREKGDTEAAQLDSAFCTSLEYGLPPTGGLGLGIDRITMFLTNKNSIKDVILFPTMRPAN

From ChEMBL document CHEMBL3988442, “University of Dundee, Small-Polar-MMV Screening Library” (2021).

A: 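Enzyme assay of tryptophanyl-tRNA synthetase; the read-out is not stated. Target: Tryptophan-tRNA ligase, Mycobacterium tuberculosis (UniProt P9WFT3). Tested at 10 µM. Higher most likely means stronger inhibition; the record gives no direction and few retests gave an IC50. About 65,000 compounds were tested under these conditions; 0.098% (about 64) showed 50% or more at least once.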
B: 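ClpP1P2, Mycobacterium tuberculosis (UniProt P9WPC5 and UniProt P9WPC3). Protease assay of ClpP1P2, read by the AMC dye that it sets free. Concentration: 50 µM. Higher reads as stronger inhibition, judged from the few compounds that gave an IC50. Most other retested compounds had strongly negative values. Size under these conditions: about 69,000 compounds, about 10 of them at 50% or above in at least one test.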
C: 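Enzyme assay of the thioesterase domain of polyketide synthase 13; the read-out is not stated. Target: Polyketide synthase Pks13, Mycobacterium tuberculosis (UniProt I6X8D2). Concentration: 30 µM. Higher reads as stronger inhibition (inferred from which compounds were picked for retests). Size under these conditions: about 67,000 compounds, about 300 of them at 50% or above in at least one test.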
D: 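Enzyme assay of the cytosolic lysyl-tRNA synthetase in 384-well plates, read by luminescence. Target: Lysine-tRNA ligase, Plasmodium falciparum 3D7 (UniProt Q8IDJ8). Concentration: 30 µM. Higher reads as stronger inhibition, judged from the few compounds that gave an IC50. Of about 69,000 compounds tested this way, about 49 (0.071%) reached 50% or more in at least one test.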

Each number is a percent effect as filed.
The controls that fix the scale are not given in the record; negative values are as filed.
The compounds are a random part of those screened.

For CC(C#N)CSc1ccccc1NCC(=O)NC(=O)NC(C)(C)C (stereo not drawn) the result was A: -1.675%; B: -4.949%; C: -40.85%; D: 5.22%. With COc1ccc(CNc2n[nH]c(C)n2)cc1 the screen gave A: -2.304%; B: 7.955%; D: 4.975%. CN(CCO)CC1COCCN1C(=O)C1(c2cccs2)CCCC1 (stereo not drawn) gave A: 2.918%; B: -9.95%; C: -17.63%; D: 6.729%. With O=C(Cc1ccn[nH]1)N1CCc2cc(Br)sc2C1 the screen gave A: 1.805%; B: -5.732%; C: -10.94%; D: 3.416%. With CC(C)n1cnnc1CN(C)C1CCCNC1 (stereo not drawn) the screen gave A: -3.302%; B: 3.136%; C: -33.8%; D: 3.081%. Cn1ccnc1CN(CCO)Cc1ccc(C(F)(F)F)cc1 read A: 0.3303%; B: -4.226%; C: -16.29%; D: 5.158%. For Cc1noc(C)c1CN1C[C@@H]2COC[C@@H](C(=O)N3CCCO3)[C@@H]2C1 the result was A: 18.76%; B: 15.42%; C: -15.09%; D: -0.08957%. CC(NC(=O)c1cccnc1N(C)C)c1ccccc1Br (stereo not drawn) read A: 6.59%; B: 8.203%; C: 0.1596%; D: -3.156%.

With Cc1c(Cl)ccc2ccc(NC(CO)CO)nc12 the screen gave A: -0.4955%; B: -3.01%; C: 12.5%; D: 5.511%. With O=C(Cn1ccc2ccc(Br)cc21)NC[C@@H]1CCCN2CCCC[C@H]12 the screen gave A: 0.201%; B: 3.435%; C: -15.15%; D: -1.504%. C/C(=C\c1ccco1)CN(C)C(C)Cc1ccccn1 (stereo not drawn) read A: 4.459%; B: 9.846%; C: 1.032%; D: -7.699%. With COc1ccccc1CN1C[C@@H](F)[C@@H](OCc2nc3ccccc3[nH]2)C1 the screen gave A: 5.416%; B: -3.928%; C: -26.49%; D: 4.384%. With CN(C)C(=O)N1CCc2ccc(=O)[nH]c2CC1 the screen gave A: 0.3666%; B: 1.286%; C: -29.4%; D: 5.521%. With O=C(Cc1cn2ccccc2n1)N1CCCC(n2ccnc2)C1 (stereo not drawn) the screen gave A: -0.1704%; B: -15.96%; C: -19.07%; D: -1.34%. Result for Cc1cc2n(n1)CC(CNCc1ccc(-n3cccn3)nc1)CN2 (stereo not drawn) was A: -1.572%; B: 13.36%; C: -5.756%; D: -1.613%. For CCCc1noc(CN(C)C(=O)C2COc3ccccc3C2)n1 (stereo not drawn) the result was A: 0.9114%; B: 2.59%; C: -3.854%; D: -1.335%.

COCc1cnc2n1CCN(C(=O)c1ocnc1C)C2C (stereo not drawn) gave A: -1.569%; B: 12.11%; C: -6.296%; D: 3.184%. O=C(O)[C@@H]1CN(C(=O)c2ccc(O)cc2)C[C@H]1c1cccc(F)c1 gave A: 0.2945%; B: 25.95%; C: 4.773%; D: -0.631%. With CCC(C)CS(=O)(=O)NC(=O)C1CC1 (stereo not drawn) the screen gave A: 4.944%; B: 2.626%; C: -19.83%; D: 2.068%. Cc1nccn1-c1cccc(C2CCCN(C(=O)c3cc[nH]n3)C2)n1 (stereo not drawn) read A: 0.4167%; B: 20.33%; C: -9.065%; D: 4.665%. Cc1cc(F)ccc1OC1(C(=O)O)CCN(Cc2nccn2C)CC1 read A: -1.991%; B: -10.7%; C: -35.06%; D: 3.26%. CCN1CC2(CC1=O)CN(C(=O)C(C)C)CCN(S(=O)(=O)CC)C2 (stereo not drawn) read A: 5.05%; B: 9.51%; C: -21.62%; D: 6.092%.

Once more, the final 2:

Cc1cc(F)ccc1OC1(C(=O)O)CCN(Cc2nccn2C)CC1 read A: -1.991%; B: -10.7%; C: -35.06%; D: 3.26%.
CCN1CC2(CC1=O)CN(C(=O)C(C)C)CCN(S(=O)(=O)CC)C2 (stereo not drawn) read A: 5.05%; B: 9.51%; C: -21.62%; D: 6.092%.